Results reported in PubChem BioAssay AID1117319 (Southern Research Institute, 2015).
In all, about 260,000 compounds went through this assay and about 1,500 (0.58%) were called active. The inconclusive results got no clear call from the source; some entries with a clear call stand among them for comparison.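 Rule for the calls: active = inhibition above a set limit at one or more doses, reproduced on every date tested; inconclusive = results disagree between test dates, or hit never tested in dose response; inactive = the rest.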

Amino acid sequences for entries named in this document (tags omitted). A change or cut given only in a name is not applied to a line headed by its entry.
UniProt P69720: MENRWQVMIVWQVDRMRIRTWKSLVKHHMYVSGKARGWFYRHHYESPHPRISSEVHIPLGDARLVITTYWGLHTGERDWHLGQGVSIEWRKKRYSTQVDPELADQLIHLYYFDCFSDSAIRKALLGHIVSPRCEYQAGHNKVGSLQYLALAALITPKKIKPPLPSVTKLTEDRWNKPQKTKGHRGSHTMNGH
UniProt P69721: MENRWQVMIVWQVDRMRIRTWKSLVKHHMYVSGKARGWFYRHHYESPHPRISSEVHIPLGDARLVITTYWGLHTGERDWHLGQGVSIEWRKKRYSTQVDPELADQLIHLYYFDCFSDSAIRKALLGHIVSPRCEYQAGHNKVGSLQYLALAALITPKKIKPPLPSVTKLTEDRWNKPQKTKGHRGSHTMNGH
UniProt P69722: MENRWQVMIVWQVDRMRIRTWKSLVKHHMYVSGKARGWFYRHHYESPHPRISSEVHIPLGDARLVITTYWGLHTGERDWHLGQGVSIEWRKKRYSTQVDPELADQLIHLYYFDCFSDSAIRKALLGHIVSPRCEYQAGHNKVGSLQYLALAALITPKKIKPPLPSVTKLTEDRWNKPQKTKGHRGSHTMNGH
UniProt P69723: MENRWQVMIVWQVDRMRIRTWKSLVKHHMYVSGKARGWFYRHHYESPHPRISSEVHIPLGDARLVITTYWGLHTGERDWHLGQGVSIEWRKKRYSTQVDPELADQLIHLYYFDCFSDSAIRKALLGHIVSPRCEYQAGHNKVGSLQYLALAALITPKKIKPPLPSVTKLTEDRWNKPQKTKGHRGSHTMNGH
UniProt Q9HC16: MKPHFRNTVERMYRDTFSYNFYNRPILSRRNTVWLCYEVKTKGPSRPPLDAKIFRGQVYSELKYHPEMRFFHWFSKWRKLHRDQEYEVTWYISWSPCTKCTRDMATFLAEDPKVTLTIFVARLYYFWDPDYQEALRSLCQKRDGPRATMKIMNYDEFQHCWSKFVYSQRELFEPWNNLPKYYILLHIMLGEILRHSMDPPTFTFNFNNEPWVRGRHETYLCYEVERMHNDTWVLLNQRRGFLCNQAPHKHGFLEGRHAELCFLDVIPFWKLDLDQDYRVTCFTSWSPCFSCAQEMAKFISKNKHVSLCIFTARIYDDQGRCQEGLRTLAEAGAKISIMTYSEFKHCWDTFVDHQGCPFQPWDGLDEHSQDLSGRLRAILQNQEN

The compounds below were run against Virion infectivity factor (Human immunodeficiency virus type 1 group M subtype B (isolate BH10)) + Virion infectivity factor (Human immunodeficiency virus type 1 group M subtype B (isolate BRU/LAI)) + Virion infectivity factor (Human immunodeficiency virus type 1 group M subtype B (isolate PCV12)) + Virion infectivity factor (Human immunodeficiency virus type 1 group M subtype B (isolate HXB2)) + DNA dC->dU-editing enzyme APOBEC-3G (Homo sapiens) (UniProt P69720+P69721+P69722+P69723+Q9HC16) (assay: inhibitors of Vif binding to APOBEC3G peptide, primary screen, biochemical, TR-FRET, GST-Vif 1-94, biotin-A3G peptide, dose response retest (AID 1117319;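 note: Vif residues 1-94 fused to GST binding biotinylated APOBEC3G peptide 110-148; 0% = full assay without inhibitor and 100% = GST in place of GST-Vif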)). Settings: stronger effect = higher value.
For `CCN(CC)c1ccc(NC(=O)C2CCCN(S(=O)(=O)c3cnc[nH]3)C2)c(C)c1` (stereo not drawn), the inhibition was inconclusive: 37.4%.
With `O=C(N/N=C/c1ccc([N+](=O)[O-])o1)c1cc(-c2ccncc2)nc2ccccc12` the inhibition was inconclusive: 33.6%.
`CCOc1cc(NC2CS(=O)(=O)CC2O)c(OCC)cc1NC(=O)c1ccccc1` (stereo not drawn) was tested, and the inhibition was inconclusive: 43.3%.
For `COc1cc(-c2noc(-c3cccs3)n2)cc(OC)c1OC`, the inhibition was inconclusive: 43.2%.
With `C/C(=C\C(=O)c1ccccc1)Nc1ccc(O)cc1` the inhibition was inconclusive: 43.3%.
`CCOC(=O)c1c(-c2ccccc2)csc1NC(=O)c1cc2ccccc2oc1=O` was tested, and the inhibition was inconclusive: 47.8%.
In the case of `O=C(CNc1n[nH]c(=O)[nH]c1=O)N/N=C/c1ccccc1`, the inhibition was inactive: -4.54%.
In the case of `CN(C)CCNC(=O)c1c(O)c2c([nH]c1=O)CCCC2`, the inhibition was inconclusive: 33.9%.
In the case of `C=CCSc1nnc(NC(=O)c2ccc(S(=O)(=O)NCC3CCCO3)cc2)s1` (stereo not drawn), the inhibition was inconclusive: 40.1%.
`CCCCN1C(=O)c2ccc(C(=O)NC3=NCCS3)cc2C1=O` was tested, and the inhibition was inconclusive: 46.5%.
In the case of `CC(C)(C)c1ccc(C(=O)N2CCC(=O)N(C(CO)Cc3ccccc3)CC2)cc1` (stereo not drawn), the inhibition was inconclusive: 41.2%.
In the case of `COc1ccc(NC(=O)NCCCN2CCC(Cc3ccccc3)CC2)cc1`, the inhibition was inconclusive: 36.1%.
In the case of `O=C(/C=C/c1ccc(-c2ccccc2[N+](=O)[O-])o1)c1ccc(Br)cc1`, the inhibition was inconclusive: 37%.
With `O=C(CNC(=O)c1ccc(-c2ccccc2)cc1)OCc1c(F)cccc1Cl` the inhibition was inconclusive: 40.4%.
For `CN1C2=NCCN2C(=O)c2ccccc21`, the inhibition was inconclusive: 56%.
For `CC(/C=C/c1ccco1)=N/NC(=O)Cc1cccs1`, the inhibition was inconclusive: 34%.
With `COC(=O)c1nnn(-c2nonc2N)c1CSc1ccc(Cl)cc1` the inhibition was inconclusive: 46.4%.
`Cn1cccc1C(=O)Nc1nccs1` was tested, and the inhibition was inconclusive: 53%.
For `CCOC(=O)c1cnn(-c2ccccn2)c1N`, the inhibition was inconclusive: 34.4%.
`CC1(C)Oc2ccc(C(=O)N3CCCC3)cc2N(CC(=O)NCc2ccccc2)C1=O` was tested, and the inhibition was inconclusive: 38.1%.
In the case of `O=C(CN(Cc1ccco1)C(=O)c1ccccc1)Nc1ccc(Cl)c(Cl)c1`, the inhibition was inconclusive: 17.8%.
`Oc1ccc(/C=N/Nc2nn3cnnc3c3ccccc23)cc1` was tested, and the inhibition was inconclusive: 53.4%.
In the case of `CN(C(=O)C1CCCO1)c1nnc(-c2ccncc2)s1` (stereo not drawn), the inhibition was inconclusive: 53%.
In the case of `CCOc1ccc(C2C(C(=O)c3cccs3)=C(O)C(=O)N2Cc2cccnc2)cc1OC` (stereo not drawn), the inhibition was inconclusive: 50.3%.
In the case of `CC12CCCc3c(O)cc(=O)n(c31)-c1ccccc12` (stereo not drawn), the inhibition was inactive: 0.05%.
For `O=C(c1ccc(F)cc1)C1CCN(C(=O)Nc2ccccc2Cl)CC1`, the inhibition was inconclusive: 50.4%.
`COc1cc(C(=O)Nc2c(C)cc(C)cc2C)c([N+](=O)[O-])cc1OC` was tested, and the inhibition was inactive: -0.83%.
`Cn1c2ccc(F)cc2c2ncn(CC3CCCO3)c(=O)c21` (stereo not drawn) was tested, and the inhibition was inconclusive: 51.5%.
`CCSc1nc2sc3c(c2c(=O)[nH]1)CCc1ccccc1-3` was tested, and the inhibition was inconclusive: 36%.
For `Cc1csc(NC(=O)CSc2nncn2C)n1`, the inhibition was inactive: 7.24%.
In the case of `O=C(CN1CCN(c2ccc(O)cc2)CC1)NC(c1ccccc1)c1ccccc1`, the inhibition was inconclusive: 60.3%.
In the case of `COc1ccc2c(C(=O)CCl)c[nH]c2c1`, the inhibition was inconclusive: 46.8%.
With `CCN(CC)S(=O)(=O)c1cccc(C(=O)N/N=C/c2cc(OC)c(O)c(OC)c2)c1` the inhibition was inactive: 1.27%.
In the case of `NS(=O)(=O)c1cc2c(cc1Cl)NC=NS2(=O)=O`, the inhibition was inconclusive: 38.6%.
In the case of `CCc1nc2c(n1O)CCc1nonc1-2`, the inhibition was inconclusive: 55.8%.
For `CCCC(=O)C1=C(O)C(C(=O)OC)C(C)(C)CC1=NCCCCCC(=O)O` (stereo not drawn), the inhibition was inconclusive: 45.6%.
`O=Cc1ccc(-c2cccs2)s1` was tested, and the inhibition was inactive: -3.47%.
With `O=C(NCc1ccco1)c1cccn2c(=O)c3cc4ccccc4cc3nc12` the inhibition was inconclusive: 53.5%.
With `CC1CC(=O)C=C(O)C1C(=O)OC(C)(C)C` (stereo not drawn) the inhibition was inconclusive: 53.8%.
For `Oc1ccc(/C=N/Nc2cc(N3CCOCC3)nc(N3CCOCC3)n2)cc1O`, the inhibition was inconclusive: 46.7%.
With `CC1(C)S/C(=N/N=C/c2ccco2)NC1=O` the inhibition was inconclusive: 42.6%.
For `NCCCC[C@H]1CNC(=O)C(=O)N1CC1CCCCC1`, the inhibition was inconclusive: 33.3%.
With `Cc1ccc(Cl)cc1Nc1nc(-c2sc(NC(=O)c3cccc(Cl)c3)nc2C)cs1` the inhibition was inconclusive: 47.6%.
`CCCCC1=CC2=C(c3ccco3)C(=O)C(C)(OC(=O)c3ccc(OC)cc3)C(=O)C2=CN1c1ccccc1` (stereo not drawn) was tested, and the inhibition was inconclusive: 41.9%.
`CC(=O)Nc1ccc(N/C=C2/CCCC2=O)cc1` was tested, and the inhibition was inconclusive: 50.9%.
With `CSc1nnc(Cc2cc(=O)[nH]c(=O)[nH]2)n1-c1cc(C)ccc1C` the inhibition was inconclusive: 37.8%.
`COc1ccc(CNC(=O)C(c2ccco2)N(C(=O)CNS(=O)(=O)c2ccccc2)c2ccccc2C)cc1` (stereo not drawn) was tested, and the inhibition was inconclusive: 41.4%.
With `Cc1noc(NS(=O)(=O)c2ccc(NC(=O)COc3ccc(Cl)cc3Cl)cc2)c1C` the inhibition was inconclusive: 58%.
`COC(=O)c1ccc(COc2ccc(/C=N/O)cc2)o1` was tested, and the inhibition was inconclusive: 35.3%.
`COC(=O)Cc1[nH]nc2c1C(C1C=CCCC1)C(C#N)=C(N)O2` (stereo not drawn) was tested, and the inhibition was inactive: 7.26%.
`Cc1c(N/C(=N/S(=O)(=O)c2ccc(F)cc2)c2ccccc2)c(=O)n(-c2ccccc2)n1C` was tested, and the inhibition was inactive: 0.73%.
`OCCC1CN(Cc2cccn2-c2ncccn2)CCN1Cc1ccccc1` (stereo not drawn) was tested, and the inhibition was inconclusive: 41.8%.
For `COc1cccc2c(=O)n(CC(=O)N3CCCCC3)ccc12`, the inhibition was inconclusive: 33.7%.
With `N#CC1(C#N)C(c2ccccc2)OC23CCCCC2C1(C#N)C(=N)O3` (stereo not drawn) the inhibition was inconclusive: 45.6%.
For `Cc1ccc(Nc2cc(=O)[nH]c(=O)[nH]2)cc1C`, the inhibition was inconclusive: 44.5%.
For `CC(=C\c1ccccc1)/C=C1/SC(=S)N(CCCC(=O)O)C1=O`, the inhibition was inactive: 2.05%.
`CC(OC(=O)CNC(=O)C12CC3CC(CC(C3)C1)C2)C(=O)Nc1ccc(N2CCOCC2)cc1` (stereo not drawn) was tested, and the inhibition was inconclusive: 49.1%.
`O=C(Nc1ccccc1)C1=C(O)CC(c2ccoc2)CC1=Nc1ccccc1` (stereo not drawn) was tested, and the inhibition was inconclusive: 25.6%.
